Experimental data reported in the supplement of paper PMC10849652.
This is one part of the list.

Chains of the proteins cited; added tags and fusions are not shown. Lines headed by an entry give the natural chain unless they say otherwise; changes in a name come on top.
UniProt P68363, whole entry, looked up: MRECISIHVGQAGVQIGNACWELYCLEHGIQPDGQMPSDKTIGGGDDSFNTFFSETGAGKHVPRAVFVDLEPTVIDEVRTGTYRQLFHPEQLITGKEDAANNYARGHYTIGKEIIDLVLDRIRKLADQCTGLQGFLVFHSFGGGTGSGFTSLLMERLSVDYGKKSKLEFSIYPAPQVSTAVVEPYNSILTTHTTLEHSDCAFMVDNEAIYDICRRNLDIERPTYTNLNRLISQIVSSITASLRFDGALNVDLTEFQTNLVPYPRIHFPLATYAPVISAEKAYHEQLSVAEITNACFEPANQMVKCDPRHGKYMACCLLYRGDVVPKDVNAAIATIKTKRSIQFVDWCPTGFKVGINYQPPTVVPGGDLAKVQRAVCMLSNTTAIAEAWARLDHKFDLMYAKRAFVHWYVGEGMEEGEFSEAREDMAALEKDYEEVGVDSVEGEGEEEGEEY
UniProt Q06418: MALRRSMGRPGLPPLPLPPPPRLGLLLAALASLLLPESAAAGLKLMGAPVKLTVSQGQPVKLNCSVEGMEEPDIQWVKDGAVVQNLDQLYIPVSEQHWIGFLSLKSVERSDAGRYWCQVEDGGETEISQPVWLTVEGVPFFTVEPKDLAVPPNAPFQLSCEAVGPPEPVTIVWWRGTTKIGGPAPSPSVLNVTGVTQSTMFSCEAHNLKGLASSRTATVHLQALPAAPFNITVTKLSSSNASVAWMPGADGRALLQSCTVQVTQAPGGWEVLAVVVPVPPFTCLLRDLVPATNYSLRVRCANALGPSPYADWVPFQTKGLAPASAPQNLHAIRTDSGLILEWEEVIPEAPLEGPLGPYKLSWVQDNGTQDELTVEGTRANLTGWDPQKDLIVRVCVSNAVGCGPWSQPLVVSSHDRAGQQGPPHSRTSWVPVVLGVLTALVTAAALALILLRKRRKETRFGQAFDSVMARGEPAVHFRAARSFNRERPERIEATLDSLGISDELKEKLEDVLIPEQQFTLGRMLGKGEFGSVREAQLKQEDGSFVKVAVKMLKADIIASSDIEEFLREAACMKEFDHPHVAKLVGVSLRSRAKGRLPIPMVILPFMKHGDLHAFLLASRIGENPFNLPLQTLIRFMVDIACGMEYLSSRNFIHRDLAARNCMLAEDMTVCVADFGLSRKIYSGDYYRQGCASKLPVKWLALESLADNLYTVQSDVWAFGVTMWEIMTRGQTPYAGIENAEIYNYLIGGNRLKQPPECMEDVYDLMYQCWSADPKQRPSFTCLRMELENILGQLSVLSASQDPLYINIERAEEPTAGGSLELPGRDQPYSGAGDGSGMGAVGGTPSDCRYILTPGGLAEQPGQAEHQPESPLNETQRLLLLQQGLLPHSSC
UniProt Q9NNW7, whole entry, looked up: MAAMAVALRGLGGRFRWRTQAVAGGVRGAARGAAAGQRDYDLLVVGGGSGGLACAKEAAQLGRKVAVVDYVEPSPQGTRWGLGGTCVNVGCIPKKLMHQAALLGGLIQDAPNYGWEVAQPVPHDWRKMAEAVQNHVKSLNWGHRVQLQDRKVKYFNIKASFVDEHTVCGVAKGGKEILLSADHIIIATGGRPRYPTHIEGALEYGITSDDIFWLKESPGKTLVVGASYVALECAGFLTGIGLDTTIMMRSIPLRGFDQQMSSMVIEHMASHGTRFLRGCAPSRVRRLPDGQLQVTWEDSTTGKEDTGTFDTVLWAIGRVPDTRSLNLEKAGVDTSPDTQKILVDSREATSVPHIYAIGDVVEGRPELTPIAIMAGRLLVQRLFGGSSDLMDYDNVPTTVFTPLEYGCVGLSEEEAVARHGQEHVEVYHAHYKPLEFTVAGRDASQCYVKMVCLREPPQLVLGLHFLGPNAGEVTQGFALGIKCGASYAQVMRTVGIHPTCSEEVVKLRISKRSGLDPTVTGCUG
UniProt Q96ET8: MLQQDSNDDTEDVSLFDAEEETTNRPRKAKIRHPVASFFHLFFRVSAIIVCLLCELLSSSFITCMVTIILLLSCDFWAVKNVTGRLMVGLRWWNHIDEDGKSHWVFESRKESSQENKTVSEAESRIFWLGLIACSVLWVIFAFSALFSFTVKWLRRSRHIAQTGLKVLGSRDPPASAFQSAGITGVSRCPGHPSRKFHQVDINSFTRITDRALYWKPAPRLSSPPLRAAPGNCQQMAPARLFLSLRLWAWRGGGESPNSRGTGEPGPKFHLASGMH
UniProt Q9C0H2: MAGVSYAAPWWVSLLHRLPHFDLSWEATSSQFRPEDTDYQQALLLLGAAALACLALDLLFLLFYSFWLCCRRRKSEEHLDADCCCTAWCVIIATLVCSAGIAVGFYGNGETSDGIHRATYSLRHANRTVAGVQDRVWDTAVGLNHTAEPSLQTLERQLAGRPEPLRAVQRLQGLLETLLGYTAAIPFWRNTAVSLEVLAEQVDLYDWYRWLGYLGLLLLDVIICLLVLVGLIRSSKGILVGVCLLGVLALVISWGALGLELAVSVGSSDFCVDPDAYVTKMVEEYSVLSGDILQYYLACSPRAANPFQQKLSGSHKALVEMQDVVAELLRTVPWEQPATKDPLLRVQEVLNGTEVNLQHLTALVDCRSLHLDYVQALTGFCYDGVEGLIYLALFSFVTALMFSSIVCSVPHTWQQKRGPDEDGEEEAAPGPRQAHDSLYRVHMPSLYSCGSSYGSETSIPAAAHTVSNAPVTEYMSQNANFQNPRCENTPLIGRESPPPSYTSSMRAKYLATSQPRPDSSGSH
UniProt Q16881, whole entry, looked up: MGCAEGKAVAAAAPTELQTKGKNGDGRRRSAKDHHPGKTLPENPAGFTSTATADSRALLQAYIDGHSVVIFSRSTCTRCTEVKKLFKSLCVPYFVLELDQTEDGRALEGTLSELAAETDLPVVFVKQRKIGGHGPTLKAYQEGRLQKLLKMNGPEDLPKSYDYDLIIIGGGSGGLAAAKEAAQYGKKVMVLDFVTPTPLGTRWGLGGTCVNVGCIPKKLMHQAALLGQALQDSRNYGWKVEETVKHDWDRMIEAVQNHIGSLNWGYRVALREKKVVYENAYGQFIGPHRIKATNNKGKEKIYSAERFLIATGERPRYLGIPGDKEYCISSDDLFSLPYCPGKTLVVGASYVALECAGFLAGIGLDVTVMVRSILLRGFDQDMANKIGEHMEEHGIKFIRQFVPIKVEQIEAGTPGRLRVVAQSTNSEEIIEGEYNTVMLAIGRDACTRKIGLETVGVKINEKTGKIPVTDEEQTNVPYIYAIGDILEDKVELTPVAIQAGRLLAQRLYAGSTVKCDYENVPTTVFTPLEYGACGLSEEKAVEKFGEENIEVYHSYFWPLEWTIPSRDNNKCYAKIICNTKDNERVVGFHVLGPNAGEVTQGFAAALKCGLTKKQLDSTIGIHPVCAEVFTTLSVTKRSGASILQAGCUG
UniProt Q14157: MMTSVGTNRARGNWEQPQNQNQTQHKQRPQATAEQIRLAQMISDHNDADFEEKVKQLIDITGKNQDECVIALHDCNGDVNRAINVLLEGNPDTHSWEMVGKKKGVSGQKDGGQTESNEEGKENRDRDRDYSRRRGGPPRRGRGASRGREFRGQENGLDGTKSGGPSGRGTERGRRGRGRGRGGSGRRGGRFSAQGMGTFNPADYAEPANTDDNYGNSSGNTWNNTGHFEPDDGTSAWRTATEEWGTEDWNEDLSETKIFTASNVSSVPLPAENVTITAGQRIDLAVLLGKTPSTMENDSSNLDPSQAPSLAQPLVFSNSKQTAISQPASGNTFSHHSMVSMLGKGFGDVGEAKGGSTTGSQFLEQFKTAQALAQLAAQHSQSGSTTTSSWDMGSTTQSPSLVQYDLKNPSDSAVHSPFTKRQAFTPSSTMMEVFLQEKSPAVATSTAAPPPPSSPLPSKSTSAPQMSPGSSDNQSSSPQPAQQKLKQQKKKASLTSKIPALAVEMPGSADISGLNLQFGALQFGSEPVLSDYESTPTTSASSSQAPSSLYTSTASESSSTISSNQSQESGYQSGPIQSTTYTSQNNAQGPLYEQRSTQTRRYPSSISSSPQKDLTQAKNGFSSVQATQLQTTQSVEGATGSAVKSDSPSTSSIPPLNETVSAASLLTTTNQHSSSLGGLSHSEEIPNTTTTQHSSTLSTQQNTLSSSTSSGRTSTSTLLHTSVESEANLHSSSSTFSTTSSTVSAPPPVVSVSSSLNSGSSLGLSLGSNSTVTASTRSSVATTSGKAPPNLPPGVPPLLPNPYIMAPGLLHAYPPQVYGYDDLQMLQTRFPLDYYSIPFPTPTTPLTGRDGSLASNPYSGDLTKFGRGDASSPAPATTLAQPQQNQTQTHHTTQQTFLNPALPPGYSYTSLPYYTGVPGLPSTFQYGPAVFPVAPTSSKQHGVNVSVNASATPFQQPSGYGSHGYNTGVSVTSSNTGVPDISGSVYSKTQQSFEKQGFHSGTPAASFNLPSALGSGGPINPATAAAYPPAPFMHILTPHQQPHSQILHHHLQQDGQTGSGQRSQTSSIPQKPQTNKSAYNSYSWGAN
UniProt P29597: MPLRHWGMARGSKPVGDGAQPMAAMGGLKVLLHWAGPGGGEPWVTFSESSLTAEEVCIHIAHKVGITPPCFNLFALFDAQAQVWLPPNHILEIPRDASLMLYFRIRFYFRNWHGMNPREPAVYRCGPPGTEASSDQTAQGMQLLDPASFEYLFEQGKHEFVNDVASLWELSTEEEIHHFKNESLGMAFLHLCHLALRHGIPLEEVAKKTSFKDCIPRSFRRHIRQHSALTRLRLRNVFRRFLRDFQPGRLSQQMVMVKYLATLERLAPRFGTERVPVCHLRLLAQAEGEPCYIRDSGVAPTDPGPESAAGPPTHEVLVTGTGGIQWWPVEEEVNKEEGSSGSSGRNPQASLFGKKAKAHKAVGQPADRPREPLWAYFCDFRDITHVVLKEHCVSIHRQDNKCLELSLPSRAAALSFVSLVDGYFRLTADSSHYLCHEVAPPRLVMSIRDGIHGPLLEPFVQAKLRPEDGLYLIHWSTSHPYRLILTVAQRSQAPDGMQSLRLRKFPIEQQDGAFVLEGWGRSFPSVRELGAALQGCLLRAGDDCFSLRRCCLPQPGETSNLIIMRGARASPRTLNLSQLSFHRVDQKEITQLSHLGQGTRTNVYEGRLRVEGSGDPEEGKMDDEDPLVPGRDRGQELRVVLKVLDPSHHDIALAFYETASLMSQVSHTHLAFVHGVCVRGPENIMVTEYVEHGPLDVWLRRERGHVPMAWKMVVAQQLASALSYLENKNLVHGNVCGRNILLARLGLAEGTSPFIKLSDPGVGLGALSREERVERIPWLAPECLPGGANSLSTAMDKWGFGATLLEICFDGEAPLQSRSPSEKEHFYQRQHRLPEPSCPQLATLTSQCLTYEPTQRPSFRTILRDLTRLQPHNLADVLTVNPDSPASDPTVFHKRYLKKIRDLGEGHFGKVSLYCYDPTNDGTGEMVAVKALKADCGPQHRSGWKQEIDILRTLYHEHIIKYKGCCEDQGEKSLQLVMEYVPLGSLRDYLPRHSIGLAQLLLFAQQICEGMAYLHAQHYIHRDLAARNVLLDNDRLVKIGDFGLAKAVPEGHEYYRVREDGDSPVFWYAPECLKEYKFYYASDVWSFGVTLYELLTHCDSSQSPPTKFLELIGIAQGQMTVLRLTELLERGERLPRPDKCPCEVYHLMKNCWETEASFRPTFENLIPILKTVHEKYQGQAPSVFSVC
UniProt Q86VQ6, whole entry, looked up: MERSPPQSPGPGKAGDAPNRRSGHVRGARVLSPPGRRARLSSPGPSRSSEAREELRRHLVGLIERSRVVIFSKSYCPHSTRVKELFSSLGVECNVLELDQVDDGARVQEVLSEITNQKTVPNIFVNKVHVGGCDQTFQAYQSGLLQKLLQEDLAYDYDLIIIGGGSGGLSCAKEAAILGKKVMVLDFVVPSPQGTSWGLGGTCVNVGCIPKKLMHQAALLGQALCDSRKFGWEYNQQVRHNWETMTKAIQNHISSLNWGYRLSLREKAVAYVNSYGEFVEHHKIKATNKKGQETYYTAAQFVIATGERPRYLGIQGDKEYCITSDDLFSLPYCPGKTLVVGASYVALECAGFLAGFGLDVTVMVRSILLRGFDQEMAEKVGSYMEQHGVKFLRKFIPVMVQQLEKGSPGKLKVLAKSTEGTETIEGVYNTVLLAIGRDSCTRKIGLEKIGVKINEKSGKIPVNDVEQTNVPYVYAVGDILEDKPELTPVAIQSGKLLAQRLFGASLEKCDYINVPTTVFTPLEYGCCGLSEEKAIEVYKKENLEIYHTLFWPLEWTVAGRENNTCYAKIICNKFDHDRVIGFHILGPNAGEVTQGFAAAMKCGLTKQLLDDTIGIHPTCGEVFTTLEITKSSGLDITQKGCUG
UniProt A2RUC4: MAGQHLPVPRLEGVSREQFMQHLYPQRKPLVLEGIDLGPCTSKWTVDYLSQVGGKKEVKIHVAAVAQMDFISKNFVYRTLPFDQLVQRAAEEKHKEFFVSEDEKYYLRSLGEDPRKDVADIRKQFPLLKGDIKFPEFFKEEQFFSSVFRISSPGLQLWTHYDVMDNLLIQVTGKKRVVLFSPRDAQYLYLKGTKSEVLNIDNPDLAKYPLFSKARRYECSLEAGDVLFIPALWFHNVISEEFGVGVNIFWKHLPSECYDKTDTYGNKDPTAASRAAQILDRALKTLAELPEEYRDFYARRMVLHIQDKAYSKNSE

Legend:
Test in all cases: log2 fold change, soluble protein after heating vs DMSO (PISA); higher = thermal stabilisation; K562 lysate, 10 uM; active = over 0.2 and 3.5 SD of the protein, either way, in both replicates (recomputed)
alvocidib = compound: CN1CC[C@H](c2c(O)cc(O)c3c(=O)cc(-c4ccccc4Cl)oc23)[C@H](O)C1 [alvocidib]
Method in brief: (§1)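 The values are log-two fold changes in thermal stability compared with solvent controls and come from duplicates. They were obtained by TMTpro 16plex LC-MS/MS, with channel sums equalised, on the supernatant after 21,000xg for 90 min. That supernatant came from crude K562 extract at 1 mg/mL protein treated with 10 μM compound for 30 min, heated for 3 min across 48°C-58°C, pooled and brought to 0.5% NP-40 at 4°C.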

Tubastatin A = compound: CN1CCc2c(c3ccccc3n2Cc2ccc(C(=O)NO)cc2)C1 [Tubastatin A]
Method in brief: as §1

[1] = compound: CNC(=O)C1=CC=CC=C1NC2=NC(=NC=C2Cl)NC3=C(C=C(C=C3)N4CCOCC4)OC
Method in brief: as §1

defactinib = compound: CNC(=O)c1ccc(Nc2ncc(C(F)(F)F)c(NCc3nccnc3N(C)S(C)(=O)=O)n2)cc1 [defactinib]
Method in brief: as §1

encorafenib = compound: COC(=O)N[C@@H](C)CNc1nccc(-c2cn(C(C)C)nc2-c2cc(Cl)cc(NS(C)(=O)=O)c2F)n1 [encorafenib]
Method in brief: as §1

[2] = compound: COC(=O)[C@H](CCSC)NC(=O)C1=C(C=C(C=C1)NC[C@H](CS)N)C2=CC=CC=C2
Method in brief: as §1

alisertib = compound: COc1cc(Nc2ncc3c(n2)-c2ccc(Cl)cc2C(c2c(F)cccc2OC)=NC3)ccc1C(=O)O [alisertib]
Method in brief: as §1

[3] = compound: COc1cc2nc(-c3cc(F)ccc3O)nc(N[C@@H]3CNC[C@H]3C(C)(C)O)c2cc1OC
Method in brief: as §1

gefitinib = compound: COc1cc2ncnc(Nc3ccc(F)c(Cl)c3)c2cc1OCCCN1CCOCC1 [gefitinib]
Method in brief: as §1

lapatinib = compound: CS(=O)(=O)CCNCc1ccc(-c2ccc3ncnc(Nc4ccc(OCc5cccc(F)c5)c(Cl)c4)c3c2)o1 [lapatinib]
Method in brief: as §1

pictilisib = compound: CS(=O)(=O)N1CCN(Cc2cc3nc(-c4cccc5[nH]ncc45)nc(N4CCOCC4)c3s2)CC1 [pictilisib]
Method in brief: as §1

crizotinib = compound: C[C@@H](Oc1cc(-c2cnn(C3CCNCC3)c2)cnc1N)c1c(Cl)ccc(F)c1Cl [crizotinib]
Method in brief: as §1

[4] = compound: C[C@H](C1=CC=C(C=C1)C(=O)NC2=C3C=CNC3=NC=C2)N
Method in brief: as §1

gandotinib = compound: Cc1cc(Nc2cc(CN3CCOCC3)c3nc(C)c(Cc4ccc(Cl)cc4F)n3n2)n[nH]1 [gandotinib]
Method in brief: as §1

tozasertib = compound: Cc1cc(Nc2cc(N3CCN(C)CC3)nc(Sc3ccc(NC(=O)C4CC4)cc3)n2)n[nH]1 [tozasertib]
Method in brief: as §1

doramapimod = compound: Cc1ccc(-n2nc(C(C)(C)C)cc2NC(=O)Nc2ccc(OCCN3CCOCC3)c3ccccc23)cc1 [doramapimod]
Method in brief: as §1

bafetinib = compound: Cc1ccc(NC(=O)c2ccc(CN3CC[C@H](N(C)C)C3)c(C(F)(F)F)c2)cc1Nc1nccc(-c2cncnc2)n1 [bafetinib]
Method in brief: as §1

[5] = compound: Cc1cccc(CC(=O)N2CCc3c2ccc(-c2cn(C)c4ncnc(N)c24)c3F)n1
Method in brief: as §1

[6] = compound: CNc1nc(-c2ccc3c(N)n[nH]c3c2)cc(N2C[C@@H](C(=O)NC3CCCCC3)CC[C@H]2C)n1
Method in brief: as §1

duvelisib = compound: C[C@H](Nc1ncnc2nc[nH]c12)c1cc2cccc(Cl)c2c(=O)n1-c1ccccc1 [duvelisib]
Method in brief: as §1

Measured: log2 fold change

TUBB6 (UniProt K7ES63)
inactive: alvocidib -0.11 | Tubastatin A -0.021 | [1] 0.111 | defactinib -0.018 | encorafenib 0.024 | [2] 0.125 | alisertib 0.055 | [3] -0.051 | gefitinib 0.165 | lapatinib -0.1 | pictilisib 0.021 | crizotinib -0.277 | [4] -0.178 | gandotinib 0.042 | tozasertib 0.122 | doramapimod 0.2 | bafetinib -0.278 | [5] 0.253

TUBA1B (UniProt P68363)
inactive: alvocidib -0.027 | Tubastatin A -0.056 | [1] 0.019 | defactinib -0.03 | [6] 0.003 | encorafenib -0.004 | [2] 0.085 | alisertib 0.026 | [3] -0.004 | gefitinib 0.013 | lapatinib 0.004 | pictilisib 0.001 | crizotinib -0.039 | [4] -0.015 | duvelisib -0.011 | gandotinib 0.022 | tozasertib -0.011 | doramapimod 0.023 | bafetinib -0.025 | [5] 0.002

UBA52 (UniProt P62987)
inactive: alvocidib -0.057 | [1] 0.147 | encorafenib 0.022 | [2] -0.051 | alisertib 0.023 | [3] -0.014 | gefitinib -0.038 | lapatinib 0.04 | pictilisib 0.048 | crizotinib -0.011 | [4] 0 | gandotinib 0.029 | tozasertib 0.02 | doramapimod 0.023 | bafetinib 0.097 | [5] 0.047

UBQLN1 (UniProt H0YEZ9)
inactive: [1] 0.078

UBN1 (UniProt Q9NPG3)
inactive: alvocidib -0.176 | defactinib -0.044 | [6] -0.076 | encorafenib 0.059 | [2] 0.088 | [3] 0.09 | lapatinib -0.187 | crizotinib -0.042 | [4] -0.057 | duvelisib -0.092 | gandotinib 0.215 | tozasertib 0.069 | doramapimod -0.256 | [5] 0.308

UBAP2L (UniProt F8W726)
inactive: defactinib 0.06 | [3] 0.093 | lapatinib -0.15 | crizotinib 0.098 | doramapimod -0.068

UBA7 (UniProt P41226)
inactive: alvocidib -0.018 | [1] 0.018 | crizotinib -0.015 | [4] -0.015 | gandotinib -0.024 | doramapimod -0.021 | [5] 0.01

TUBA4A (UniProt C9JQ00)
inactive: alvocidib 0.074 | pictilisib -0.2 | [4] -0.094 | gandotinib -0.142 | bafetinib -0.368 | [5] 0.228

UBA2 (UniProt K7ESK7)
inactive: [3] -0.001 | lapatinib -0.099

UBAP2, A0A0D9SFI5
inactive: crizotinib -0.037 | doramapimod -0.056

U2SURP isoform 2 (UniProt O15042)
inactive: [1] 0.131 | defactinib -0.034 | [6] 0.047 | encorafenib 0.09 | [2] 0.118 | duvelisib 0.058 | tozasertib -0.333

UCHL1 (UniProt P09936)
inactive: encorafenib -0.826 | [2] -0.477 | tozasertib 0.601

UBE2M (UniProt M0QX69)
inactive: alvocidib -0.103 | [4] -0.139 | gandotinib 0.071 | [5] 0.251

UBXN7 (UniProt H7BYF4)
inactive: alisertib -0.044 | [3] 0.062 | gefitinib -0.127 | lapatinib -0.006

UBE2K (UniProt D6RDM7)
inactive: [1] 0.035 | defactinib -0.178 | encorafenib 0.029 | [2] 0.001 | alisertib 0.199 | [3] 0.095 | gefitinib 0.138 | lapatinib -0.229 | tozasertib -0.023

TYRO3 (UniProt Q06418)
inactive: alvocidib -0.04 | Tubastatin A -0.139 | defactinib 0.22 | encorafenib -0.142 | [2] -0.08 | pictilisib -0.125 | [4] -0.044 | gandotinib -0.191 | tozasertib 0.146 | doramapimod -0.131 | bafetinib -0.047 | [5] 0.075

UBE2O (UniProt K7ES11)
inactive: alvocidib 0.367 | [3] -0.006 | lapatinib 0.045 | [4] 0.743 | gandotinib -0.301 | [5] -0.346

TXNRD2 isoform 3 (UniProt Q9NNW7)
inactive: Tubastatin A 0.072 | [1] 0.194

TVP23C (UniProt Q96ET8)
inactive: alvocidib -0.236 | crizotinib 0.018 | [4] -0.473 | gandotinib 0.144 | doramapimod 0.062 | [5] -0.033

UBR4 isoform 4 (UniProt Q5T4S7)
inactive: Tubastatin A -0.337 | [1] -0.16 | defactinib -0.032 | [6] 0.144 | encorafenib -0.028 | [2] 0.062 | [3] 0.064 | lapatinib 0.146 | duvelisib -0.143 | tozasertib 0.079

TTYH3 isoform 4 (UniProt Q9C0H2)
inactive: [1] 0.012

TXNRD1 isoform 7 (UniProt Q16881)
inactive: alvocidib -0.158 | Tubastatin A 0.205 | defactinib -0.024 | [6] 0.535 | encorafenib -0.06 | [2] 0.049 | [3] 0.094 | lapatinib -0.177 | pictilisib 0.049 | [4] -0.389 | duvelisib 0.109 | gandotinib 0.613 | tozasertib -0.181 | bafetinib -0.051 | [5] 0.455

UBN2 (UniProt Q6ZU65)
inactive: Tubastatin A -0.112 | [1] -0.004 | defactinib 0.038 | [6] 0.147 | encorafenib 0 | [2] 0.164 | alisertib -0.07 | gefitinib 0.194 | crizotinib 0.035 | duvelisib -0.001 | tozasertib -0.123 | doramapimod 0.269

TULP3 isoform 2 (UniProt O75386)
inactive: Tubastatin A -0.189 | [1] 0.087 | defactinib 0.106 | [6] 0.053 | alisertib -0.036 | gefitinib -0.173 | duvelisib -0.002

UBAP2L isoform 1 (UniProt Q14157)
inactive: Tubastatin A -0.006 | alisertib 0.032 | gefitinib -0.088 | pictilisib -0.116 | crizotinib 0.376 | doramapimod -0.26 | bafetinib 0.56

U2AF2 (UniProt K7ELP8)
inactive: alvocidib -0.069 | defactinib 0.029 | encorafenib 0.028 | [2] 0.126 | alisertib 0.046 | [3] 0.058 | gefitinib -0.15 | lapatinib -0.134 | [4] -0.083 | gandotinib -0.072 | tozasertib 0.042 | [5] 0.001

UBE2I (UniProt H3BQQ9)
inactive: alvocidib 0.331 | Tubastatin A -0.077 | defactinib -0.027 | [6] 0.174 | [3] 0.15 | lapatinib -0.011 | pictilisib 0.012 | crizotinib -0.183 | [4] -0.271 | duvelisib 0.074 | gandotinib 0.127 | doramapimod 0.152 | bafetinib -0.278 | [5] 0.077

UBQLN1 isoform 2 (UniProt Q9UMX0)
inactive: Tubastatin A 0.101 | [1] 0.028 | defactinib 0.346 | [6] -0.009 | encorafenib 0.223 | [2] 0.008 | [3] -0.051 | lapatinib -0.06 | crizotinib 0.062 | duvelisib 0.001 | tozasertib 0.034 | doramapimod -0.038

UBA2 (UniProt U3KQ93)
inactive: [1] 0.063 | encorafenib -0.094 | [2] -0.02 | crizotinib -0.114 | tozasertib 0.134 | doramapimod 0.014

TUBA8 (UniProt Q9NY65)
inactive: alvocidib -0.21 | [1] 0.01 | [6] 0.024 | encorafenib 0.029 | [2] 0.016 | alisertib 0.201 | gefitinib 0.207 | pictilisib -0.055 | [4] -0.358 | duvelisib 0.087 | gandotinib 0.138 | tozasertib 0.17 | bafetinib -0.327 | [5] 0.297

UBE2W isoform 3 (UniProt Q96B02)
inactive: [1] -0.115 | defactinib -0.01 | pictilisib -0.04 | bafetinib 0.066

Reprinted at random: three entries already listed
UBAP2L isoform 1 (UniProt Q14157)
inactive: Tubastatin A -0.006 | alisertib 0.032 | gefitinib -0.088 | pictilisib -0.116 | crizotinib 0.376 | doramapimod -0.26 | bafetinib 0.56

UBXN7 (UniProt H7BYF4)
inactive: alisertib -0.044 | [3] 0.062 | gefitinib -0.127 | lapatinib -0.006

UBAP2L (UniProt F8W726)
inactive: defactinib 0.06 | [3] 0.093 | lapatinib -0.15 | crizotinib 0.098 | doramapimod -0.068

The list continues.

TYK2 (UniProt P29597)
inactive: [1] -0.237 | encorafenib -0.092 | [2] -0.101 | crizotinib 0.082 | tozasertib -0.054 | doramapimod 0.086

UBAP2 (UniProt Q5JV08)
inactive: alisertib -0.165 | gefitinib -0.139

TXNRD3 (UniProt Q86VQ6)
inactive: alvocidib -0.079 | [1] -0.081 | encorafenib 0.045 | [2] 0.047 | [3] 0.116 | lapatinib 0.196 | pictilisib -0.128 | [4] 0.316 | gandotinib 0.027 | tozasertib -0.108 | bafetinib 0.009 | [5] -0.173

TXNDC9 isoform 2 (UniProt O14530)
inactive: [6] -0.067 | duvelisib -0.089

TYW5 (UniProt A2RUC4)
inactive: alvocidib -0.034 | [1] 0.125 | encorafenib 0.02 | [2] -0.003 | alisertib 0.051 | [3] -0.211 | gefitinib -0.036 | lapatinib 0.034 | pictilisib -0.059 | crizotinib 0.02 | [4] 0.024 | gandotinib -0.091 | tozasertib -0.005 | doramapimod -0.047 | bafetinib 0.034 | [5] 0.062

TUBB2B (UniProt Q9BVA1)
inactive: alvocidib 0.006 | [6] -0.184 | encorafenib 0.108 | [2] 0.158 | alisertib -0.045 | [3] -0.023 | gefitinib -0.09 | lapatinib 0.119 | pictilisib -0.002 | [4] -0.013 | duvelisib -0.21 | gandotinib 0.057 | tozasertib 0.063 | bafetinib -0.008 | [5] 0.001
